The supplement of paper PMC8728848
The list shows a part of the results.

Columns and labels:
Experiment in all cases: glycan array binding signal (z-score within array); higher = stronger binding
Conditions in all cases: glycan notation: IUPAC condensed, linker removed
[1] = molecular target: Gal(b1-4)GlcNAc(b1-3)Gal(b1-4)GlcNAc(b1-3)Gal(b1-4)GlcNAc(b1-3)Gal(b1-4)GlcNAc(b1-2)Man(a1-3)[Gal(b1-4)GlcNAc(b1-3)Gal(b1-4)GlcNAc(b1-3)Gal(b1-4)GlcNAc(b1-3)Gal(b1-4)GlcNAc(b1-2)Man(a1-6)]Man(b1-4)GlcNAc(b1-4)GlcNAc
Procedure, shortened: (§1)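 The binding signal is a Z-score computed within each array. Data were drawn from 3228 arrays in the Consortium for Functional Glycomics database, restricted to those with a known protein sequence. Scores were averaged over arrays of the same protein sequence at different concentrations or buffers, and over linkers, and negative values can be taken as non-binding.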

[2] = molecular target: Gal(b1-4)GlcNAc(b1-3)Gal(b1-4)GlcNAc(b1-3)Gal(b1-4)GlcNAc(b1-3)Gal(b1-4)GlcNAc(b1-2)Man(a1-3)[Gal(b1-4)GlcNAc(b1-3)Gal(b1-4)GlcNAc(b1-3)Gal(b1-4)GlcNAc(b1-3)Gal(b1-4)GlcNAc(b1-2)Man(a1-6)]Man(b1-4)GlcNAc(b1-4)[Fuc(a1-6)]GlcNAc
Procedure, shortened: as §1

[3] = molecular target: Gal(b1-4)GlcNAc(b1-3)Gal(b1-4)GlcNAc(b1-3)Gal(b1-4)GlcNAc(b1-3)Gal(b1-4)GlcNAc(b1-2)[Gal(b1-4)GlcNAc(b1-3)Gal(b1-4)GlcNAc(b1-3)Gal(b1-4)GlcNAc(b1-3)Gal(b1-4)GlcNAc(b1-6)]Man(a1-6)[Gal(b1-4)GlcNAc(b1-3)Gal(b1-4)GlcNAc(b1-3)Gal(b1-4)GlcNAc(b1-3)Gal(b1-4)GlcNAc(b1-2)Man(a1-3)]Man(b1-4)GlcNAc(b1-4)[Fuc(a1-6)]GlcNAc
Procedure, shortened: as §1

[4] = molecular target: Gal(b1-4)GlcNAc(b1-3)Gal(b1-4)GlcNAc(b1-3)Gal(b1-4)GlcNAc(b1-3)Gal(b1-4)GlcNAc(b1-3)Gal(b1-4)GlcNAc(b1-2)Man(a1-3)[Gal(b1-4)GlcNAc(b1-3)Gal(b1-4)GlcNAc(b1-3)Gal(b1-4)GlcNAc(b1-3)Gal(b1-4)GlcNAc(b1-3)Gal(b1-4)GlcNAc(b1-2)Man(a1-6)]Man(b1-4)GlcNAc(b1-4)GlcNAc
Procedure, shortened: as §1

[5] = molecular target: Gal(b1-4)GlcNAc(b1-3)Gal(b1-4)GlcNAc(b1-3)Gal(b1-4)GlcNAc(b1-3)Gal(b1-4)GlcNAc(b1-3)Gal(b1-4)GlcNAc(b1-2)Man(a1-3)[Gal(b1-4)GlcNAc(b1-3)Gal(b1-4)GlcNAc(b1-3)Gal(b1-4)GlcNAc(b1-3)Gal(b1-4)GlcNAc(b1-3)Gal(b1-4)GlcNAc(b1-2)Man(a1-6)]Man(b1-4)GlcNAc(b1-4)[Fuc(a1-6)]GlcNAc
Procedure, shortened: as §1

[6] = molecular target: Gal(b1-4)GlcNAc(b1-3)Gal(b1-4)GlcNAc(b1-3)Gal(b1-4)GlcNAc(b1-3)Gal(b1-4)GlcNAc(b1-3)Gal(b1-4)GlcNAc(b1-2)[Gal(b1-4)GlcNAc(b1-3)Gal(b1-4)GlcNAc(b1-3)Gal(b1-4)GlcNAc(b1-3)Gal(b1-4)GlcNAc(b1-3)Gal(b1-4)GlcNAc(b1-6)]Man(a1-6)[Gal(b1-4)GlcNAc(b1-3)Gal(b1-4)GlcNAc(b1-3)Gal(b1-4)GlcNAc(b1-3)Gal(b1-4)GlcNAc(b1-3)Gal(b1-4)GlcNAc(b1-2)Man(a1-3)]Man(b1-4)GlcNAc(b1-4)[Fuc(a1-6)]GlcNAc
Procedure, shortened: as §1

[7] = molecular target: Gal(b1-4)GlcNAc(b1-3)Gal(b1-4)GlcNAc(b1-3)Gal(b1-4)GlcNAc(b1-3)Gal(b1-4)GlcNAc(b1-3)Gal(b1-4)GlcNAc(b1-3)Gal(b1-4)GlcNAc(b1-2)Man(a1-3)[Gal(b1-4)GlcNAc(b1-3)Gal(b1-4)GlcNAc(b1-3)Gal(b1-4)GlcNAc(b1-3)Gal(b1-4)GlcNAc(b1-3)Gal(b1-4)GlcNAc(b1-3)Gal(b1-4)GlcNAc(b1-2)Man(a1-6)]Man(b1-4)GlcNAc(b1-4)GlcNAc
Procedure, shortened: as §1

[8] = molecular target: Gal(b1-4)GlcNAc(b1-3)Gal(b1-4)GlcNAc(b1-3)GalNAc
Procedure, shortened: as §1

[9] = molecular target: Gal(b1-4)GlcNAc(b1-3)Gal(b1-4)GlcNAc(b1-3)[Gal(b1-4)GlcNAc(b1-3)Gal(b1-4)GlcNAc(b1-6)]GalNAc
Procedure, shortened: as §1

[10] = molecular target: Gal(b1-4)GlcNAc(b1-3)Gal(b1-4)GlcNAc(b1-6)[Gal(b1-3)]GalNAc
Procedure, shortened: as §1

[11] = molecular target: Gal(b1-4)GlcNAc(b1-3)Gal(b1-4)[Fuc(a1-3)]GlcNAc(b1-3)Gal(b1-4)[Fuc(a1-3)]GlcNAc
Procedure, shortened: as §1

[12] = molecular target: Gal(b1-4)GlcNAc(b1-3)GalNAc
Procedure, shortened: as §1

[13] = molecular target: Gal(b1-4)GlcNAc(b1-3)[Fuc(a1-3)GlcNAc(b1-6)]Gal(b1-4)Glc
Procedure, shortened: as §1

[14] = molecular target: Gal(b1-4)GlcNAc(b1-3)[Gal(b1-4)GlcNAc(b1-6)]Gal(b1-4)GlcNAc
Procedure, shortened: as §1

[15] = molecular target: Gal(b1-4)GlcNAc(b1-3)[GlcNAc(b1-6)]Gal(b1-4)GlcNAc
Procedure, shortened: as §1

[16] = molecular target: Gal(b1-4)GlcNAc(b1-6)Gal(b1-4)GlcNAc
Procedure, shortened: as §1

[17] = molecular target: Gal(b1-4)GlcNAc(b1-6)GalNAc
Procedure, shortened: as §1

[18] = molecular target: Gal(b1-4)GlcNAc(b1-6)[Gal(b1-3)]GalNAc
Procedure, shortened: as §1

[19] = molecular target: Gal(b1-4)GlcNAc(b1-6)[Gal(b1-4)GlcNAc(b1-3)]GalNAc
Procedure, shortened: as §1

Gal(b1-4)GlcNAc6P = molecular target: Gal(b1-4)GlcNAc6P
Procedure, shortened: as §1

Gal(b1-6)Gal = molecular target: Gal(b1-6)Gal
Procedure, shortened: as §1

Gal3S(b1-3)GalNAc = molecular target: Gal3S(b1-3)GalNAc
Procedure, shortened: as §1

Gal3S(b1-3)GlcNAc = molecular target: Gal3S(b1-3)GlcNAc
Procedure, shortened: as §1

B1: DC-Sign-R (Homo sapiens), Q9H2X3 (protein)
chain: MSDSKEPRVQQLGLLEEDPTTSGIRLFPRDFQFQQIHGHKSSTGCLGHGALVLQLLSFMLLAGVLVAILVQVSKVPSSLSQEQSEQDAIYQNLTQLKAAVGELSEKSKLQEIYQELTQLKAAVGELPEKSKLQEIYQELTRLKAAVGELPEKSKLQEIYQELTRLKAAVGELPEKSKLQEIYQELTRLKAAVGELPEKSKLQEIYQELTELKAAVGELPEKSKLQEIYQELTQLKAAVGELPDQSKQQQIYQELTDLKTAFERLCRHCPKDWTFFQGNCYFMSNSQRNWHDSVTACQEVRAQLVVIKTAEEQNFLQLQTSRSNRFSWMGLSDLNQEGTWQWVDGSPLSPSFQRYWNSGEPNNSGNEDCAEFSGSGWNDNRCDVDNYWICKKPAACFRDE
B1 was tested, and the “glycan array binding signal (z-score)” value [1] was -0.627, the “glycan array binding signal (z-score)” value [2] was -0.503 and the “glycan array binding signal (z-score)” value [3] was 0.809. The “glycan array binding signal (z-score)” value [4] was 0.946, the “glycan array binding signal (z-score)” value [5] was -0.11 and the “glycan array binding signal (z-score)” value [6] was 0.255. The “glycan array binding signal (z-score)” value [7] was -0.523, the “glycan array binding signal (z-score)” value [8] was 0.037 and the “glycan array binding signal (z-score)” value [9] was 0.59. The “glycan array binding signal (z-score)” value [10] was 0.681, the “glycan array binding signal (z-score)” value [11] was 0.294 and the “glycan array binding signal (z-score)” value [12] was -0.197. The “glycan array binding signal (z-score)” value [13] was 1.01, the “glycan array binding signal (z-score)” value [14] was 0.178 and the “glycan array binding signal (z-score)” value [15] was 0.038. The “glycan array binding signal (z-score)” value [16] was 0.266, the “glycan array binding signal (z-score)” value [17] was -0.504 and the “glycan array binding signal (z-score)” value [18] was -0.369. The “glycan array binding signal (z-score)” value [19] was -0.051, the “glycan array binding signal (z-score)” value (Gal(b1-4)GlcNAc6P) was -0.738 and the “glycan array binding signal (z-score)” value (Gal(b1-6)Gal) was -0.753. For the same binder, the “glycan array binding signal (z-score)” value (Gal3S(b1-3)GalNAc) was -0.843 and the “glycan array binding signal (z-score)” value (Gal3S(b1-3)GlcNAc) was -0.493.
